PubChem BioAssay AID493246, Drosophila RNAi Screening Center, 2011

Aim: 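Identify essential fly genes by loss of cell viability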 (primary screen)
Cells: Drosophila Kc and S2R+ cells
Knock-down reagent: long dsRNA against Drosophila genes
Detection: 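Raw, unnormalised count of remaining cells in each well; per-plate z-scores of cell number underlie the calls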
Scale: Kc cell number and S2R+ cell number: higher = more cells remaining
Hit rule: 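Active when the per-plate z-score of cell number is 3 or more in the direction of fewer cells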
In all, the deposit lists about 21,000 reagents; this is a random part of those with a known target gene and a result. Over the whole deposit, 429 (2%) got an active call. 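Values are raw and not normalised between plates; calls rest on per-plate z-scores that were not deposited.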 Not given: the amount of reagent, the time to read-out.

For CG16756 (GeneID 31460) [DRSC18115], the values are Kc cell number, rep 1 = 1.48e6; Kc cell number, rep 2 = 1.59e6; S2R+ cell number, rep 1 = 9.74e5; S2R+ cell number, rep 2 = 1.17e6; inactive.
Knock-down of Ir94a (GeneID 318610) [DRSC13538] gave: Kc cell number, rep 1 = 1.51e6; Kc cell number, rep 2 = 1.49e6; S2R+ cell number, rep 1 = 1.05e6; S2R+ cell number, rep 2 = 1.10e6; inactive.
After knock-down of mr (GeneID 45906) [DRSC04332] the results were Kc cell number, rep 1 = 1.37e6; Kc cell number, rep 2 = 1.38e6; S2R+ cell number, rep 1 = 1.09e6; S2R+ cell number, rep 2 = 1.16e6; inactive.
Ran-like (GeneID 39666) [DRSC10918] scored Kc cell number, rep 1 = 1.56e6; Kc cell number, rep 2 = 1.57e6; S2R+ cell number, rep 1 = 1.24e6; S2R+ cell number, rep 2 = 1.34e6; inactive.
After knock-down of msd1 (GeneID 38155) [DRSC08383], the screen gave Kc cell number, rep 1 = 1.37e6; Kc cell number, rep 2 = 1.37e6; S2R+ cell number, rep 1 = 9.87e5; S2R+ cell number, rep 2 = 1.23e6; inactive.
With knock-down of ATPsynE (GeneID 41745) [DRSC15476], the screen gave Kc cell number, rep 1 = 1.43e6; Kc cell number, rep 2 = 1.51e6; S2R+ cell number, rep 1 = 1.05e6; S2R+ cell number, rep 2 = 1.08e6; inactive.
With knock-down of CG8939 (GeneID 32568) [DRSC20127], the screen gave Kc cell number, rep 1 = 5.55e5; S2R+ cell number, rep 1 = 8.00e5; inactive.
After knock-down of CG14238 (GeneID 43195) [DRSC14732], the record shows Kc cell number, rep 1 = 1.46e6; Kc cell number, rep 2 = 1.49e6; S2R+ cell number, rep 1 = 9.75e5; S2R+ cell number, rep 2 = 1.13e6; inactive.
CG15499 (retired record) (GeneID 42546) [DRSC15041] showed Kc cell number, rep 1 = 1.46e6; Kc cell number, rep 2 = 1.45e6; S2R+ cell number, rep 1 = 1.10e6; S2R+ cell number, rep 2 = 1.24e6; inactive.
Knock-down of ken (GeneID 37785) [DRSC04696] gave: Kc cell number, rep 1 = 7.67e5; Kc cell number, rep 2 = 8.64e5; S2R+ cell number, rep 1 = 4.54e5; S2R+ cell number, rep 2 = 5.51e5; active.
With knock-down of CG10562 (GeneID 43066) [DRSC14257], the record shows Kc cell number, rep 1 = 5.33e5; S2R+ cell number, rep 1 = 8.01e5; inactive.
With knock-down of ninaA (GeneID 33271) [DRSC00830], the record shows Kc cell number, rep 1 = 1.33e6; Kc cell number, rep 2 = 1.35e6; S2R+ cell number, rep 1 = 9.33e5; S2R+ cell number, rep 2 = 1.07e6; inactive.
After knock-down of Sgt1 (GeneID 40982) [DRSC16519] the results were Kc cell number, rep 1 = 1.66e6; Kc cell number, rep 2 = 1.81e6; S2R+ cell number, rep 1 = 1.31e6; S2R+ cell number, rep 2 = 1.46e6; inactive.
CG40053 (retired record) (GeneID 3355092) [DRSC20833] scored Kc cell number, rep 1 = 1.21e6; Kc cell number, rep 2 = 1.51e6; S2R+ cell number, rep 1 = 1.09e6; S2R+ cell number, rep 2 = 1.07e6; inactive.
Silencing of CG42449 (GeneID 31486) [DRSC18084] came out at: Kc cell number, rep 1 = 1.28e6; Kc cell number, rep 2 = 1.37e6; S2R+ cell number, rep 1 = 1.02e6; S2R+ cell number, rep 2 = 1.13e6; inactive.
Jra (GeneID 36057) [DRSC07447] scored Kc cell number, rep 1 = 1.88e6; Kc cell number, rep 2 = 1.91e6; S2R+ cell number, rep 1 = 1.24e6; S2R+ cell number, rep 2 = 1.28e6; inactive.
Silencing of flw (GeneID 44289) [DRSC17992] came out at: Kc cell number, rep 1 = 1.65e6; Kc cell number, rep 2 = 1.64e6; S2R+ cell number, rep 1 = 1.04e6; S2R+ cell number, rep 2 = 1.15e6; inactive.
flw (GeneID 44289) [DRSC18774] showed Kc cell number, rep 1 = 1.55e6; Kc cell number, rep 2 = 1.50e6; S2R+ cell number, rep 1 = 9.57e5; S2R+ cell number, rep 2 = 1.08e6; inactive.
CG13947 (GeneID 33250) [DRSC00365] scored Kc cell number, rep 1 = 1.72e6; Kc cell number, rep 2 = 1.77e6; S2R+ cell number, rep 1 = 1.04e6; S2R+ cell number, rep 2 = 1.22e6; inactive.
Depletion of Dtd (GeneID 41371) [DRSC15362] gave: Kc cell number, rep 1 = 1.47e6; Kc cell number, rep 2 = 1.41e6; S2R+ cell number, rep 1 = 1.21e6; S2R+ cell number, rep 2 = 1.40e6; inactive.
AANATL7 (GeneID 31236) [DRSC18616] gave Kc cell number, rep 1 = 1.49e6; Kc cell number, rep 2 = 1.42e6; S2R+ cell number, rep 1 = 9.90e5; S2R+ cell number, rep 2 = 9.74e5; inactive.

Hits, among the entries above:
ken (GeneID 37785) [DRSC04696] | Kc cell number, rep 1: 7.67e5; Kc cell number, rep 2: 8.64e5; S2R+ cell number, rep 1: 4.54e5; S2R+ cell number, rep 2: 5.51e5; call: active
